Here are results for 1 substance from paper PMC5770787.

Sequences of proteins named here, by UniProt entry; tags and fusion partners are left off.
UniProt P51149: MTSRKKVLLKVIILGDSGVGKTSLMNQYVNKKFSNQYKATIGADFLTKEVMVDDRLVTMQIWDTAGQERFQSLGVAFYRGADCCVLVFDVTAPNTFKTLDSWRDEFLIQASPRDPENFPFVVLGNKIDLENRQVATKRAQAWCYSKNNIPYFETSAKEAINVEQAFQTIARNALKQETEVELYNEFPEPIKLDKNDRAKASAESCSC

Results are given in words; binding and its absence hold for the method and conditions named. In cells and extracts the contact can be indirect. Some results given as binding are weak or reduced against the parent protein; the word gives no strength. Where a sequence is shown, tags or fusion partners need not be part of it.

This experiment deals with T1, GFP-GDI1 (UniProt P31150).
T1 sequence: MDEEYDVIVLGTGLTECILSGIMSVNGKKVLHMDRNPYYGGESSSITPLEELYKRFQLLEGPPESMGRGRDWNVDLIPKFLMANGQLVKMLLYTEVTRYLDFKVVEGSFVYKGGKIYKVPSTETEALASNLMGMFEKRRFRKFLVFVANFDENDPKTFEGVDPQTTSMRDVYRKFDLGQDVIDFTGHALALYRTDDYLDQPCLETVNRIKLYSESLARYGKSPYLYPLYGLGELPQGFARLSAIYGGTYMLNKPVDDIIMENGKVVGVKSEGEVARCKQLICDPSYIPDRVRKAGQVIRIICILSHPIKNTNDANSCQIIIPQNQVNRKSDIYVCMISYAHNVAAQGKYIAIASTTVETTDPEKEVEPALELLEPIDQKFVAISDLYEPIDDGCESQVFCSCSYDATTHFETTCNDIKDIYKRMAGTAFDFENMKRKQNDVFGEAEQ
In words: co-IP; GFP-trap of lentivirally expressed GFP bait (GFP-RAB7 from parental HeLa; GFP-GDI1 from parental HeLa and VPS35 KO cells); Tris-HCl pH 7.8, 50 mM NaCl, 0.5% Triton X-100, 1 mM MgCl2; Western blot for endogenous prey. For orientation: A western blot detects proteins with antibodies after separation by electrophoresis.

For the substance “endogenous RAB7a (from UniProt P51149 1-207)”, the binding entry is reported as “binds”.
